This is an account of results in paper PMC11074327.

Sequences of proteins named here, by UniProt entry; tags and fusion partners are left off.
UniProt Q7KN62: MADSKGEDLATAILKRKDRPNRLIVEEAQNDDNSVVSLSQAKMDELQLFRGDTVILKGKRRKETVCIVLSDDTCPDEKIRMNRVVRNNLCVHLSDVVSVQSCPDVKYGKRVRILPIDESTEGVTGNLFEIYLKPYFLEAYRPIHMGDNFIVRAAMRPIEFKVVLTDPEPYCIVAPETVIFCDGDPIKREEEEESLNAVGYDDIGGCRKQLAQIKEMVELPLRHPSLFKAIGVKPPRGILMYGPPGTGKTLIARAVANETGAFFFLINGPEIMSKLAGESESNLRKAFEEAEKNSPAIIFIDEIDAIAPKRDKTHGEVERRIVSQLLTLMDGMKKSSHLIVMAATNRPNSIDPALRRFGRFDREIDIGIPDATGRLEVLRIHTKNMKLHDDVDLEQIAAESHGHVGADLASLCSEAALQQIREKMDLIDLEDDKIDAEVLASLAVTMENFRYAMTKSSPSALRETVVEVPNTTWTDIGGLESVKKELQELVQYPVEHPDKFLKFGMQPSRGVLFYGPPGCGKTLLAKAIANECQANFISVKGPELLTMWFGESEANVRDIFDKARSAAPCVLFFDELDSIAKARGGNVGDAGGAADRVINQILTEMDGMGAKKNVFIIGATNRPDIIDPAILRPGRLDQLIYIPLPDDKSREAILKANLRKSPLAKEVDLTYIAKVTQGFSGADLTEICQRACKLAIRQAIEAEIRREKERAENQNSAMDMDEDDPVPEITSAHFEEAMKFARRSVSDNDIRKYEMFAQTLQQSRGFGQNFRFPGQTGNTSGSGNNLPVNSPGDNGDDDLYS

No constants are given. Whether binding was seen depends on the method and setting. In cells and extracts the contact can be indirect. Some entries that bind do so weakly or less than the wild type. Where a sequence is shown, tags or fusion partners need not be part of it.

The chains are these.
B1: Myc-Mer-L135P (protein, UniProt Q24564 1-635)
chain: MSPFGSKKNRSLSVRVSTFDSELEFKLEPRASGQDLFDLVCRTIGLRESWYFGLQYVDTRSNVSWLKMEKRVRDQRVELHASNNVYVFSFYAKFFPENVSEELIQEITQHLFFLQVKQSILSMDIYCRPEASVLPASYAVHVQYGPYDYETYKDGMLAGGELLPKGVTDQYQMTPEMWEERIKTWYMDHEPMTRDEVEMEYLKIAQDLDMYGVNYFPITNKNKTKLWLGVTSVGLNIYDERDKLTPKTTFQWNEIRHVSFDDKKFTIRLVDAKVSNFIFYSQDLHINKMILDLCKGNHDLYMRRRKPDTMEIQQMKAQAKEEKQRRQIERKKFIREKKLREKAEHERYELEKSMEHLQNEMRMANDALRRSEETKELYFEKSRVNEEQMQLTECKANHFKTEMDRLRERQMKIEREKHDLEKKIRDADFYVHQLTVENDKREAETEKLRKELICAKMAEREATARLLEFLNSGRKSSTDSLLTASSVSHAANTASSMAAISTPSLITSSSTNDLETAGGAELTTHSSHYLVQGDNSSGISDDFEPKEFILTDNEMEQITNEMERNHLDYLRNSKQVQSQLQTLRSEIAPHKIEENQSNLDILSEAQIKAGENKYSTLKKLKSGSTKARVAFFEEL
B2: Myc-Mer-F52S (protein, UniProt Q24564 1-635)
chain: MSPFGSKKNRSLSVRVSTFDSELEFKLEPRASGQDLFDLVCRTIGLRESWYSGLQYVDTRSNVSWLKMEKRVRDQRVELHASNNVYVFSFYAKFFPENVSEELIQEITQHLFFLQVKQSILSMDIYCRPEASVLLASYAVHVQYGPYDYETYKDGMLAGGELLPKGVTDQYQMTPEMWEERIKTWYMDHEPMTRDEVEMEYLKIAQDLDMYGVNYFPITNKNKTKLWLGVTSVGLNIYDERDKLTPKTTFQWNEIRHVSFDDKKFTIRLVDAKVSNFIFYSQDLHINKMILDLCKGNHDLYMRRRKPDTMEIQQMKAQAKEEKQRRQIERKKFIREKKLREKAEHERYELEKSMEHLQNEMRMANDALRRSEETKELYFEKSRVNEEQMQLTECKANHFKTEMDRLRERQMKIEREKHDLEKKIRDADFYVHQLTVENDKREAETEKLRKELICAKMAEREATARLLEFLNSGRKSSTDSLLTASSVSHAANTASSMAAISTPSLITSSSTNDLETAGGAELTTHSSHYLVQGDNSSGISDDFEPKEFILTDNEMEQITNEMERNHLDYLRNSKQVQSQLQTLRSEIAPHKIEENQSNLDILSEAQIKAGENKYSTLKKLKSGSTKARVAFFEEL
B3: Myc-Mer-L36R (protein, UniProt Q24564 1-635)
chain: MSPFGSKKNRSLSVRVSTFDSELEFKLEPRASGQDRFDLVCRTIGLRESWYFGLQYVDTRSNVSWLKMEKRVRDQRVELHASNNVYVFSFYAKFFPENVSEELIQEITQHLFFLQVKQSILSMDIYCRPEASVLLASYAVHVQYGPYDYETYKDGMLAGGELLPKGVTDQYQMTPEMWEERIKTWYMDHEPMTRDEVEMEYLKIAQDLDMYGVNYFPITNKNKTKLWLGVTSVGLNIYDERDKLTPKTTFQWNEIRHVSFDDKKFTIRLVDAKVSNFIFYSQDLHINKMILDLCKGNHDLYMRRRKPDTMEIQQMKAQAKEEKQRRQIERKKFIREKKLREKAEHERYELEKSMEHLQNEMRMANDALRRSEETKELYFEKSRVNEEQMQLTECKANHFKTEMDRLRERQMKIEREKHDLEKKIRDADFYVHQLTVENDKREAETEKLRKELICAKMAEREATARLLEFLNSGRKSSTDSLLTASSVSHAANTASSMAAISTPSLITSSSTNDLETAGGAELTTHSSHYLVQGDNSSGISDDFEPKEFILTDNEMEQITNEMERNHLDYLRNSKQVQSQLQTLRSEIAPHKIEENQSNLDILSEAQIKAGENKYSTLKKLKSGSTKARVAFFEEL
B4: Myc-Mer-L54P (protein, UniProt Q24564 1-635)
chain: MSPFGSKKNRSLSVRVSTFDSELEFKLEPRASGQDLFDLVCRTIGLRESWYFGPQYVDTRSNVSWLKMEKRVRDQRVELHASNNVYVFSFYAKFFPENVSEELIQEITQHLFFLQVKQSILSMDIYCRPEASVLLASYAVHVQYGPYDYETYKDGMLAGGELLPKGVTDQYQMTPEMWEERIKTWYMDHEPMTRDEVEMEYLKIAQDLDMYGVNYFPITNKNKTKLWLGVTSVGLNIYDERDKLTPKTTFQWNEIRHVSFDDKKFTIRLVDAKVSNFIFYSQDLHINKMILDLCKGNHDLYMRRRKPDTMEIQQMKAQAKEEKQRRQIERKKFIREKKLREKAEHERYELEKSMEHLQNEMRMANDALRRSEETKELYFEKSRVNEEQMQLTECKANHFKTEMDRLRERQMKIEREKHDLEKKIRDADFYVHQLTVENDKREAETEKLRKELICAKMAEREATARLLEFLNSGRKSSTDSLLTASSVSHAANTASSMAAISTPSLITSSSTNDLETAGGAELTTHSSHYLVQGDNSSGISDDFEPKEFILTDNEMEQITNEMERNHLDYLRNSKQVQSQLQTLRSEIAPHKIEENQSNLDILSEAQIKAGENKYSTLKKLKSGSTKARVAFFEEL
B5: Myc-Yki (protein, UniProt Q45VV3 1-395)
chain: MLTTMSASSNTNSLIEKEIDDEDMLSPIKSNNLVVRVNQDTDDNLQALFDSVLNPGDAKRPLQLPLRMRKLPNSFFTPPAPSHSRANSADSTYDAGSQSSINIGNKASIVQQPDGQSPIAAIPQLQIQPSPQHSRLAIHHSRARSSPASLQQNYNVRARSDAAAANNPNANPSSQQQPAGPTFPENSAQEFPSGAPASSAIDLDAMNTCMSQDIPMSMQTVHKKQRSYDVISPIQLNRQLGALPPGWEQAKTNDGQIYYLNHTTKSTQWEDPRIQYRQQQQILMAERIKQNDVLQTTKQTTTSTIANNLGPLPDGWEQAVTESGDLYFINHIDRTTSWNDPRMQSGLSVLDCPDNLVSSLQIEDNLCSNLFNDAQAIVNPPSSHKPDDLEWYKIN
B6: HA-Hpo (protein, UniProt Q8T0S6 1-669)
chain: MSEPEVTSVVDMKSPNISSSCSFFKLKKLSEESLLQPPEKVFDIMYKLGEGSYGSVYKAVHKESSSIVAIKLVPVESDLHEIIKEISIMQQCDSPYVVRYYGSYFKQYDLWICMEYCGAGSVSDIMRLRKKTLTEDEIATILSDTLQGLVYLHLRRKIHRDIKAANILLNTEGYAKLADFGVAGQLTDTMAKRNTVIGTPFWMAPEVIEEIGYDCVADIWSLGITALEMAEGKPPYGEIHPMRAIFMIPQKPPPSFREPDRWSTEFIDFVSKCLVKEPDDRATATELLEHEFIRNAKHRSILKPMLEETCAIREQQRANRSFGGVLAASQAKSLATQENGMQQHITDNAFMEDPGTLVPEKFGEYQQSSASDATMIAHAEQGVDEGTLGPGGLRNLSKAAAPAAASSAASPLDMPAVDSGTMVELESNLGTMVINSDSDDSTTAKNNDDQKPRNRYRPQFLEHFDRKNAGDGRGDEKPIATEYSPAAAEQQQQQQQQQQQQQQDEQHLASGANDLNNWEHNMEMQFQQISAINQYGLQQHQQQQQVLMAYPLMNEQLIALNNQPNLLLSNAAPMGQQGIPAAAPAQPPPAYQNQHMHTQSHAYVEGEFEFLKFLTFDDLNQRLCNIDHEMELEIEQLNKKYNAKRQPIVDAMNAKRKRQQNINNNLIKI

The experiment deals with Fg-Ter94 (Drosophila) (UniProt Q7KN62). As to the kind of experiment: co-IP; HEK-293T cells co-transfected with two tagged constructs (PEI), collected 48 h after transfection; IP with anti-Fg or anti-Myc, immunoblot.
Turning to B1, the binding entry is “binds”. In the case of B2 it was “binds”; in that of B3, “binds”; in that of B4, “binds”. With B5, the binding result is listed as “no binding”. Take B6: the binding entry is “no binding”.
